PubChem BioAssay AID493246 | Drosophila RNAi Screening Center – 2011

Screen: 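Identify essential fly genes by loss of cell viability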 (primary screen)
Cells: Drosophila Kc and S2R+ cells
Knock-down reagent: long dsRNA against Drosophila genes
Detection: 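Cell number per well after knock-down, printed as raw plate values; calls were based on per-plate z-scores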
Direction: Kc cell number and S2R+ cell number: higher = more cells remaining
Hit rule: 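Counted as a hit if cell number falls by a z-score of at least 3 within its plate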
The deposit covers about 21,000 reagents; below is a random part of those that have a named target and a result. In the full data, 429 (2%) got an active call. 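Values are raw and not normalised between plates; calls rest on per-plate z-scores that were not deposited.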 A number with no mark means an inactive call. Not stated in the record: the amount of reagent, the time to read-out.

The opening 2 records, ahead of the listing:
CG5386 [DRSC15788] → Kc cell number, rep 1: 1.37e6; Kc cell number, rep 2: 1.59e6; S2R+ cell number, rep 1: 8.35e5; S2R+ cell number, rep 2: 9.52e5
CG13461 [DRSC10008] → Kc cell number, rep 1: 1.44e6; Kc cell number, rep 2: 1.43e6; S2R+ cell number, rep 1: 1.25e6; S2R+ cell number, rep 2: 1.33e6

Results, repeating the preview:
CG5386 [DRSC15788] → Kc cell number, rep 1: 1.37e6; Kc cell number, rep 2: 1.59e6; S2R+ cell number, rep 1: 8.35e5; S2R+ cell number, rep 2: 9.52e5
CG13461 [DRSC10008] → Kc cell number, rep 1: 1.44e6; Kc cell number, rep 2: 1.43e6; S2R+ cell number, rep 1: 1.25e6; S2R+ cell number, rep 2: 1.33e6
pan (pangolin) [DRSC17176] → Kc cell number, rep 1: 5.49e5; S2R+ cell number, rep 1: 7.92e5
CG1622 [DRSC19745] → Kc cell number, rep 1: 6.56e5; S2R+ cell number, rep 1: 8.85e5
dx (deltex) [DRSC18767] → Kc cell number, rep 1: 1.43e6; Kc cell number, rep 2: 1.42e6; S2R+ cell number, rep 1: 1.01e6; S2R+ cell number, rep 2: 1.10e6
CG8299 [DRSC07139] → Kc cell number, rep 1: 1.59e6; Kc cell number, rep 2: 1.59e6; S2R+ cell number, rep 1: 1.21e6; S2R+ cell number, rep 2: 1.33e6
Plekhm1 (Pleckstrin homology and RUN domain containing M1) [DRSC04527] → Kc cell number, rep 1: 1.57e6; Kc cell number, rep 2: 1.74e6; S2R+ cell number, rep 1: 1.39e6; S2R+ cell number, rep 2: 4.55e5
CG15170 [DRSC02471] → Kc cell number, rep 1: 1.48e6; Kc cell number, rep 2: 1.58e6; S2R+ cell number, rep 1: 1.29e6; S2R+ cell number, rep 2: 3.62e5
CG1951 [DRSC15403] → Kc cell number, rep 1: 5.44e5; S2R+ cell number, rep 1: 8.62e5
CG13055 [DRSC09936] → Kc cell number, rep 1: 1.33e6; Kc cell number, rep 2: 1.41e6; S2R+ cell number, rep 1: 1.22e6; S2R+ cell number, rep 2: 1.33e6
Hip14 (Huntingtin-interacting protein 14) [DRSC10570] → Kc cell number, rep 1: 1.71e6; Kc cell number, rep 2: 1.73e6; S2R+ cell number, rep 1: 1.52e6; S2R+ cell number, rep 2: 1.51e6
IntS12 (Integrator 12) [DRSC15818] → Kc cell number, rep 1: 1.33e6; Kc cell number, rep 2: 1.35e6; S2R+ cell number, rep 1: 9.25e5; S2R+ cell number, rep 2: 1.03e6
